Reference: patent US20180148492A1 (CHILDREN S HOSPITAL MEDICAL CENTER, published 2018)
No constants are given. Whether binding was seen depends on the method and setting. For some of these results: In cells and extracts the contact can be indirect. Some entries that bind do so weakly or less than the wild type. For some of these results: Sequences can lack the tags named with a protein. Blank lines part the entries; values can stand above or below the molecule they belong to.

By UniProt entry, the sequences of proteins in these tests, tags left out. Where a name states a change or a piece, a line headed by the entry shows the natural chain unless it says otherwise.
UniProt P35221: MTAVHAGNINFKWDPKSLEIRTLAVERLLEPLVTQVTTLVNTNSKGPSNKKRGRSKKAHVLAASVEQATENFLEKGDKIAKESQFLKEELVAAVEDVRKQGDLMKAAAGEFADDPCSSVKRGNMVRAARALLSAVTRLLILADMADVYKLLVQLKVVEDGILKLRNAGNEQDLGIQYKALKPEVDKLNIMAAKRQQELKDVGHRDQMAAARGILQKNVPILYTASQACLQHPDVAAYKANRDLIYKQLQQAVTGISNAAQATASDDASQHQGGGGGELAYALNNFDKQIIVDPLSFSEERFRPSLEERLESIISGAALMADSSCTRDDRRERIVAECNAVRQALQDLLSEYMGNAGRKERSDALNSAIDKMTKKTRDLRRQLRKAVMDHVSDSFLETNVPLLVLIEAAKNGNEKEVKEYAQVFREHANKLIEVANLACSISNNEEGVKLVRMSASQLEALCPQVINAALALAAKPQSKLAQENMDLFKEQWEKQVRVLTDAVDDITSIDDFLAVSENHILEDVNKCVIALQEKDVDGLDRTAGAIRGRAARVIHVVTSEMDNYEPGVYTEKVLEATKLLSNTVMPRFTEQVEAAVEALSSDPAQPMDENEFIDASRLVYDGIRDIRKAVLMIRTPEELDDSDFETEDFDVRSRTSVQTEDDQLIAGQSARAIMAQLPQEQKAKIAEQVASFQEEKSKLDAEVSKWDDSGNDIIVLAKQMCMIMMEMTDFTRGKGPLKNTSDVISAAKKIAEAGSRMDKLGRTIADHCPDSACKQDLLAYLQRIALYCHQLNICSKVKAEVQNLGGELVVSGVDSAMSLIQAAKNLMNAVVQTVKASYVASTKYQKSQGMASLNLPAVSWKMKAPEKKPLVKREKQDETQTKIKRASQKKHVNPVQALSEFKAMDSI
UniProt P26010: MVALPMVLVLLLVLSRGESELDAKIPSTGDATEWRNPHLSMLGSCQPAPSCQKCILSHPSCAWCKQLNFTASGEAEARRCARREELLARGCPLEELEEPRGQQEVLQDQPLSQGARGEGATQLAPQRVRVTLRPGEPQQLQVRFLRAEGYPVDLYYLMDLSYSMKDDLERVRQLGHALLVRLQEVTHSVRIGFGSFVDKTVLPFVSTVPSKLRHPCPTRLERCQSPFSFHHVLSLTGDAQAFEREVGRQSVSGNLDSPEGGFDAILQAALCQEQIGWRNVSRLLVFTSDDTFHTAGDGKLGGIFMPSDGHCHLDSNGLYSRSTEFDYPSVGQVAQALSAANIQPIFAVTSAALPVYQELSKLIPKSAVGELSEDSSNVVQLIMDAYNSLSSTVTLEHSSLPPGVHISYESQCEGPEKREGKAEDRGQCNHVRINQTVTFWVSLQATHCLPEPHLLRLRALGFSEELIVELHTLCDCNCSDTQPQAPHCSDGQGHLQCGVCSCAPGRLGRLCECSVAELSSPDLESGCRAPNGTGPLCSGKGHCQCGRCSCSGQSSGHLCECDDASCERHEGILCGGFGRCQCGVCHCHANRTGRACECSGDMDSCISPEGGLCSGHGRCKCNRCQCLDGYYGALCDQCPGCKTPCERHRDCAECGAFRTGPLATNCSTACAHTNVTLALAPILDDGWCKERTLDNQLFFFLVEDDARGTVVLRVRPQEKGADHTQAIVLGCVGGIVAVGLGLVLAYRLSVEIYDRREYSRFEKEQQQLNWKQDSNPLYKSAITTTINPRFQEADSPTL
UniProt P35222: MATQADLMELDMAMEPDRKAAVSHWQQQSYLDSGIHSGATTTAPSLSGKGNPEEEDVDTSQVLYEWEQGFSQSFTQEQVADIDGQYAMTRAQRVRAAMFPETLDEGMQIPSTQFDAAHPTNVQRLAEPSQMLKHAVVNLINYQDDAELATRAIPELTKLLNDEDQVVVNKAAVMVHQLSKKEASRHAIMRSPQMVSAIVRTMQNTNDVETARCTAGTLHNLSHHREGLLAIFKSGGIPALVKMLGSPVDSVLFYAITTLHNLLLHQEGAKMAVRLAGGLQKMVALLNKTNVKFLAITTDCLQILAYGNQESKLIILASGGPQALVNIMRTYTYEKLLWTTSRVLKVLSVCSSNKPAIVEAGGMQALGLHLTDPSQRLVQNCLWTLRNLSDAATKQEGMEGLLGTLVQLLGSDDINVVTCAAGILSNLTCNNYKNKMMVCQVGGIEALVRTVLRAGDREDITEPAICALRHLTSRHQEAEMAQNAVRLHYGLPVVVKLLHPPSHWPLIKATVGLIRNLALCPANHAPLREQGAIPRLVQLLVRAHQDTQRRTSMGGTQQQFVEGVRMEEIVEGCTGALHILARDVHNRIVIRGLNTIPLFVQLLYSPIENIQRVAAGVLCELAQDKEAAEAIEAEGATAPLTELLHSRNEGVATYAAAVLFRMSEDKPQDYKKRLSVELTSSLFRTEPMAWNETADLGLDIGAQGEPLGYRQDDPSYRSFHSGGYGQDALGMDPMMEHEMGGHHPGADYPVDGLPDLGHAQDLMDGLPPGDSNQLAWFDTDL

How the values were obtained:
alpha-catenin = alpha-catenin (UniProt P35221); test: co-immunoprecipitation from transfected HEK 293T cells, western blot
[1] = molecular target: T1, recombinant human integrin α4β7 (R&D Systems) (human) (UniProt P13612+P26010); test: summary of the cell adhesion assay on coated α4β7
[2] = molecular target: T1, recombinant human integrin α4β7 (R&D Systems) (human); test: adhesion of transduced L929 cells to wells coated with recombinant α4β7, percent adherent cells
[3] = molecular target: T1, recombinant human integrin α4β7 (R&D Systems) (human); test: summary at the head of the examples
[4] = molecular target: T1, recombinant human integrin α4β7 (R&D Systems) (human); test: Giemsa staining of the wells of the cell adhesion assay
Myc-tagged CDH26 (human) [5] = molecular target: T2, Myc-tagged CDH26 (human) (UniProt Q8IXH8); test: summary at the head of the examples
T2 sequence: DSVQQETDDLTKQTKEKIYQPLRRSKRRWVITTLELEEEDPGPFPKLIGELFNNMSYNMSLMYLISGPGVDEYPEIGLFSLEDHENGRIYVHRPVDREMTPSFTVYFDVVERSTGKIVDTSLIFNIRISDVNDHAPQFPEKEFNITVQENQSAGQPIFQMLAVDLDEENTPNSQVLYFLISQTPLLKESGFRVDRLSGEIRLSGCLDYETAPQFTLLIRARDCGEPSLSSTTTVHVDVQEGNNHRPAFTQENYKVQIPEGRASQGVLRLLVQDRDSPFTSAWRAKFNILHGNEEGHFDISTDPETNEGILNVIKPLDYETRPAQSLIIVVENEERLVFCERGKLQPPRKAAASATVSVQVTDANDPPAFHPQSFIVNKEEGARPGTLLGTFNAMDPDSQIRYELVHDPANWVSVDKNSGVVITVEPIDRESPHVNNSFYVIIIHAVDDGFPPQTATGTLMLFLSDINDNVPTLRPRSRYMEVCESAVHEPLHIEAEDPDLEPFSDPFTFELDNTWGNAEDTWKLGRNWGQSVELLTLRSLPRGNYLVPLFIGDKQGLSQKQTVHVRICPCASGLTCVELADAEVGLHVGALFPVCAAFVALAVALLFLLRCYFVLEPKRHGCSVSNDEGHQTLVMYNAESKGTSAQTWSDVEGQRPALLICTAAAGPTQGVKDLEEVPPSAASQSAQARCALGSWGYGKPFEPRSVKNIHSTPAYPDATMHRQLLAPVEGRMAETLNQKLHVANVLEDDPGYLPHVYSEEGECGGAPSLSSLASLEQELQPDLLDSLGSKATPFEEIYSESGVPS

[6] = molecular target: T3, integrin α4 overexpressed in HEK 293T cells (UniProt P13612); test: co-immunoprecipitation from HEK 293T cells overexpressing both proteins
T3 sequence (looked up): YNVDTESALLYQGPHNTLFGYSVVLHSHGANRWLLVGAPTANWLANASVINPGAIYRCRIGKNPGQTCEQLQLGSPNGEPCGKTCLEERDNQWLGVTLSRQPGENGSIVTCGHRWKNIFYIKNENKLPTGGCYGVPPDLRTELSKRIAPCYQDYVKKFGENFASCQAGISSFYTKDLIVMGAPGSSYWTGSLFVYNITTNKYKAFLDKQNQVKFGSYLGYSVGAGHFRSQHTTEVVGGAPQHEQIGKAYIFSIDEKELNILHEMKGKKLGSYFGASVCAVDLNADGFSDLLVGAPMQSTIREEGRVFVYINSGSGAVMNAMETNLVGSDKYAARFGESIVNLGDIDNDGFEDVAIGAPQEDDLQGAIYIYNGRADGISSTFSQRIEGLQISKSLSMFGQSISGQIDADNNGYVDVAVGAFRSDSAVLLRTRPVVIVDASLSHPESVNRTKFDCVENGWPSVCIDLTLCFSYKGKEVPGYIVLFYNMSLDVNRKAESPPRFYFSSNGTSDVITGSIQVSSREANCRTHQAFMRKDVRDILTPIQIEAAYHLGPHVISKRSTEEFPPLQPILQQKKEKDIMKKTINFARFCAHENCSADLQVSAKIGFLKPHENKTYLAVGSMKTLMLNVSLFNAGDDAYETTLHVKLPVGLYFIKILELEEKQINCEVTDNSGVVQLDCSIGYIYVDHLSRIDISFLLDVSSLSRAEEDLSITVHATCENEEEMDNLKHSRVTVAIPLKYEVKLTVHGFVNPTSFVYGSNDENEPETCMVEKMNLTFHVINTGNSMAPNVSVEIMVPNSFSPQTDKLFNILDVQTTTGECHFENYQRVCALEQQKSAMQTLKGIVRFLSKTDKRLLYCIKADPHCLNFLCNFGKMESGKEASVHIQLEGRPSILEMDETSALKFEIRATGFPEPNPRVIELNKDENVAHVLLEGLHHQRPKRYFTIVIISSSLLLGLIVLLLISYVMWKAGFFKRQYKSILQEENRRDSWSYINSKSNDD

Myc-tagged CDH26 (human) [7] = molecular target: T2, Myc-tagged CDH26 (human); test: summary of the co-immunoprecipitation of differently tagged CDH26
[8] = molecular target: T4, V5-tagged integrin αE (human) (UniProt P38570); test: summary at the head of the examples; the biochemical assay is taken to be the co-immunoprecipitation
T4 sequence (looked up): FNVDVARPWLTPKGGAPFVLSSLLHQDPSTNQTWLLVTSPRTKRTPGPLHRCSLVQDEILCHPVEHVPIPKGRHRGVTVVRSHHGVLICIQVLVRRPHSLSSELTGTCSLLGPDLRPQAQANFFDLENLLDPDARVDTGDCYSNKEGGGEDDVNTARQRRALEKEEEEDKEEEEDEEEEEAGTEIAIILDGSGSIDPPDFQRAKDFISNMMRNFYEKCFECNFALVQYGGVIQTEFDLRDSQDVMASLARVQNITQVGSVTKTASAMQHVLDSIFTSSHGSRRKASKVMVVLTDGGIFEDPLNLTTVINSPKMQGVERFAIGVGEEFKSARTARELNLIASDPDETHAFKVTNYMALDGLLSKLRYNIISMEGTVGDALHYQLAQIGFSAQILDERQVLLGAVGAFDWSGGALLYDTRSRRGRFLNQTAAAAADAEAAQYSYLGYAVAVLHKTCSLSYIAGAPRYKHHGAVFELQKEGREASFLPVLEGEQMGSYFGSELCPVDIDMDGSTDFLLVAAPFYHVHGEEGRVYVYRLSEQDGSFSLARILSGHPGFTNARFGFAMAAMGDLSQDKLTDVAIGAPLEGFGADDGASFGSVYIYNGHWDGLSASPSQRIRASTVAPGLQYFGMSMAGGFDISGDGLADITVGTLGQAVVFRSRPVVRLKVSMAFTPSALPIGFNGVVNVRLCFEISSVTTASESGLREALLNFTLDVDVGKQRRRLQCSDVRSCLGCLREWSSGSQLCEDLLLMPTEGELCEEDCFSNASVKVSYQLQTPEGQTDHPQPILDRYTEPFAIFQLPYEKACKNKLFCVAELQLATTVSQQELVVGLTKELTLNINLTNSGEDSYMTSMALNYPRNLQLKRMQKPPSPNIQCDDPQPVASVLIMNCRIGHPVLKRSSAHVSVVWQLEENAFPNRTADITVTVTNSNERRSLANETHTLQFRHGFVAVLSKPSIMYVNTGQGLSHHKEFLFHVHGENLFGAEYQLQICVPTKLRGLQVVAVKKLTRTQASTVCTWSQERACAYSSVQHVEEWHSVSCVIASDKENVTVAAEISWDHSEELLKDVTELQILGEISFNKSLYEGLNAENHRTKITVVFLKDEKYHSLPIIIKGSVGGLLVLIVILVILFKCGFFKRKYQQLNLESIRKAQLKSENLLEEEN

Myc-tagged CDH26 (human) [9] = molecular target: T2, Myc-tagged CDH26 (human); test: co-immunoprecipitation from co-transfected HEK 293T cells, western blot

binding (alpha-catenin): binds
Molecule: beta-catenin (positive control in the alpha-catenin immunoprecipitation) (from UniProt P35222 1-781)

binding [1]: binds
binding [2]: binds
binding [3]: binds
binding [4]: binds
B1: human CDH26 (cadherin 26) expressed on transduced cells (receptor)
chain: T2 sequence

binding (Myc-tagged CDH26 (human) [5]): binds
binding [6]: binds
binding (Myc-tagged CDH26 (human) [7]): binds
binding [8]: binds
binding (Myc-tagged CDH26 (human) [9]): binds
B2: HA-tagged CDH26 (receptor, not shown: small tags and cut ends)
chain: T2 sequence
